In the supplement of paper PMC10849652:
This is one part of the list.

Protein sequences, listed by entry. Tags and fused reporters are not part of them. Lines headed by an entry give the natural chain unless they say otherwise; changes in a name come on top.
UniProt Q86UP3: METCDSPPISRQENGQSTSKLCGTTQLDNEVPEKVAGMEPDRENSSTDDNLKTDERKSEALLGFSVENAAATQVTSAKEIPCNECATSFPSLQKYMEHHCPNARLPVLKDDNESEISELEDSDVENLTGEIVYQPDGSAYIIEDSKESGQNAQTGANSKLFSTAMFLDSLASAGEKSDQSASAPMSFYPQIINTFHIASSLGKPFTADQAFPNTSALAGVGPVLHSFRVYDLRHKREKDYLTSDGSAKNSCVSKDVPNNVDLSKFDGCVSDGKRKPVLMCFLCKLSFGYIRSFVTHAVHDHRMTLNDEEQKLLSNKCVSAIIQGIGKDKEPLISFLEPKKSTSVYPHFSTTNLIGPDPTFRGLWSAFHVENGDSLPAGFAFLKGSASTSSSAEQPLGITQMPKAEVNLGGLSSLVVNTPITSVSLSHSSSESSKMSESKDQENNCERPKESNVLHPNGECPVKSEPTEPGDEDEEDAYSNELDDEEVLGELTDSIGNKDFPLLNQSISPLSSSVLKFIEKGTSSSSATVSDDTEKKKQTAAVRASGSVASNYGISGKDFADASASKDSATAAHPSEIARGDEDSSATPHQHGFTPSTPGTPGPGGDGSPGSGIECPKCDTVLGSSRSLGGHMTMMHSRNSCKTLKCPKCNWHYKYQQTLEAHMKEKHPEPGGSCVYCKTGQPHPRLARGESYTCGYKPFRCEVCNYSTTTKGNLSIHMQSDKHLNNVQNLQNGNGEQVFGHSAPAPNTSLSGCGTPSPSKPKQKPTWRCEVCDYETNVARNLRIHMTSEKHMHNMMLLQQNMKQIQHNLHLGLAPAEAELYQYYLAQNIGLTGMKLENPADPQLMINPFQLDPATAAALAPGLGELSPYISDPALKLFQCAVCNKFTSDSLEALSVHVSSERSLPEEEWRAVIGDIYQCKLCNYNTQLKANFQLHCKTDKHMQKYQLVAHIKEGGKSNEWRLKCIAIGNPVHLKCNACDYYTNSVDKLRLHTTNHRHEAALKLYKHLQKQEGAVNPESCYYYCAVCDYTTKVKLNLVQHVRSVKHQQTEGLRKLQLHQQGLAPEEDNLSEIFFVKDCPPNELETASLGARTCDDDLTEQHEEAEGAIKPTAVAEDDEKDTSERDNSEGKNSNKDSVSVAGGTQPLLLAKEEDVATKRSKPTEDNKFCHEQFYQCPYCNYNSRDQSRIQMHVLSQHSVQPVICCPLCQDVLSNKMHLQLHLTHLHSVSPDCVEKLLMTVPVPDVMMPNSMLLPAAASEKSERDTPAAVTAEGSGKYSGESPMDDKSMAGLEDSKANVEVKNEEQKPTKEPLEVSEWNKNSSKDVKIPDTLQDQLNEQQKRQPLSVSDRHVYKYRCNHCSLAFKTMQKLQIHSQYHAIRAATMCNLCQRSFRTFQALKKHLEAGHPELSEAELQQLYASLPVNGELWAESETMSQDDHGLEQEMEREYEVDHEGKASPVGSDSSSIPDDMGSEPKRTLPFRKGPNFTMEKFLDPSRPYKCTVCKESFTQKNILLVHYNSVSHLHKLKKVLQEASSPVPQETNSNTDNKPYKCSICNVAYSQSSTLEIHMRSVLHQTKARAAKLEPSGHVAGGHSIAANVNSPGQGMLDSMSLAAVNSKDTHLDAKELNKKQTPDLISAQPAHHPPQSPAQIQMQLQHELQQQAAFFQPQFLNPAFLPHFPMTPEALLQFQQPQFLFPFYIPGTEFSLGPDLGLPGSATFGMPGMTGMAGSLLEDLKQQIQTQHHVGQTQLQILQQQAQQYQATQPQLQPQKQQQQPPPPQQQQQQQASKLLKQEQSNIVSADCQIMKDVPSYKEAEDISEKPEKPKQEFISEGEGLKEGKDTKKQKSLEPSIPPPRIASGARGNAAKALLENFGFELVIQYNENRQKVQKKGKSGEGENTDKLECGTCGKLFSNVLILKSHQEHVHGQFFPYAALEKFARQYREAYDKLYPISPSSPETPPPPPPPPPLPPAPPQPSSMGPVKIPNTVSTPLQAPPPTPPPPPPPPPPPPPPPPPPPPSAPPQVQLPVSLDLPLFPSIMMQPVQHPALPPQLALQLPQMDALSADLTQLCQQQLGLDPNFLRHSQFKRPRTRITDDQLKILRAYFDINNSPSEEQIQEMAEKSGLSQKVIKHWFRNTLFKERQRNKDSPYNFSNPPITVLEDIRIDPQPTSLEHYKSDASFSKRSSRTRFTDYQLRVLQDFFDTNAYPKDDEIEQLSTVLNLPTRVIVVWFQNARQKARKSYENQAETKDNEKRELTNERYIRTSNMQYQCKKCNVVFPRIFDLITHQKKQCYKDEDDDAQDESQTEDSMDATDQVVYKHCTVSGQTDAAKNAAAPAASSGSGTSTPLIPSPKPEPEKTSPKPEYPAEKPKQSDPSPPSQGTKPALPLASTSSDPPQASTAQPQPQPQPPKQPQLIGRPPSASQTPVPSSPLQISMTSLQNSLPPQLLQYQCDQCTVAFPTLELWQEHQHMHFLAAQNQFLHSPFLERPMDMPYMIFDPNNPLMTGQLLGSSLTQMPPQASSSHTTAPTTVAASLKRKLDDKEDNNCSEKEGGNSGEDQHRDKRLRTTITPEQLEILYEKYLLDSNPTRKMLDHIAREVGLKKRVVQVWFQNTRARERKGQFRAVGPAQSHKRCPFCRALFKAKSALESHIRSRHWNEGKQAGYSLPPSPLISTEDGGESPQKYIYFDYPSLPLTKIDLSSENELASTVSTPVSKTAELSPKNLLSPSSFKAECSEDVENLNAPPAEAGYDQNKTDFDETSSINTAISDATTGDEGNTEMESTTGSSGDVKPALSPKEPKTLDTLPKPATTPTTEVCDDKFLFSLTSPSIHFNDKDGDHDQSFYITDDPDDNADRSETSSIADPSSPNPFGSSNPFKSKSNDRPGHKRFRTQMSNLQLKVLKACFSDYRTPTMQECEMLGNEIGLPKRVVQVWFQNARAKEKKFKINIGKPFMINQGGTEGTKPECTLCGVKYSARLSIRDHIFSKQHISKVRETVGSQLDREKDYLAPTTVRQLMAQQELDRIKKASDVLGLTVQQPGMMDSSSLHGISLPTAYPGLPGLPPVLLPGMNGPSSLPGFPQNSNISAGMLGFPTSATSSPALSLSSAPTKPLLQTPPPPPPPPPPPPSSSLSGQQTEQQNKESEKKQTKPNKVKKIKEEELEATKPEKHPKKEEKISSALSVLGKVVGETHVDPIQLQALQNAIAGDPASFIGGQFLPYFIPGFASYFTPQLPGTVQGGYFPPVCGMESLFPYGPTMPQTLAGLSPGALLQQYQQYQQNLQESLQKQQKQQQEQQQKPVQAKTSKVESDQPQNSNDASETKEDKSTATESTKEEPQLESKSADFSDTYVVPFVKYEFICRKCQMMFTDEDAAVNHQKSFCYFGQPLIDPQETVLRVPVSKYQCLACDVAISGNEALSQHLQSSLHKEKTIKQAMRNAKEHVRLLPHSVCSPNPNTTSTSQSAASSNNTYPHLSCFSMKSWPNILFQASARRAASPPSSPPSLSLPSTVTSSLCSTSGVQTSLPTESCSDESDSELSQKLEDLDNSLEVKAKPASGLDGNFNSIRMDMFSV
UniProt Q9Y548: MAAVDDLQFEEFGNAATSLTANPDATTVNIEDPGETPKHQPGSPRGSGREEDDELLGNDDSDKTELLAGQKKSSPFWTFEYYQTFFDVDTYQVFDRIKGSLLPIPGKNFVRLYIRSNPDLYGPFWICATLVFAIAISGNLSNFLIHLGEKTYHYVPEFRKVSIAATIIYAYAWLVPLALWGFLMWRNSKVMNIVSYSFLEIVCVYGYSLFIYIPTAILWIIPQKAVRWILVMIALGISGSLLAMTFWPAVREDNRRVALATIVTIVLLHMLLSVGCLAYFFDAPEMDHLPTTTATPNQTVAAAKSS
UniProt Q9H2Y7: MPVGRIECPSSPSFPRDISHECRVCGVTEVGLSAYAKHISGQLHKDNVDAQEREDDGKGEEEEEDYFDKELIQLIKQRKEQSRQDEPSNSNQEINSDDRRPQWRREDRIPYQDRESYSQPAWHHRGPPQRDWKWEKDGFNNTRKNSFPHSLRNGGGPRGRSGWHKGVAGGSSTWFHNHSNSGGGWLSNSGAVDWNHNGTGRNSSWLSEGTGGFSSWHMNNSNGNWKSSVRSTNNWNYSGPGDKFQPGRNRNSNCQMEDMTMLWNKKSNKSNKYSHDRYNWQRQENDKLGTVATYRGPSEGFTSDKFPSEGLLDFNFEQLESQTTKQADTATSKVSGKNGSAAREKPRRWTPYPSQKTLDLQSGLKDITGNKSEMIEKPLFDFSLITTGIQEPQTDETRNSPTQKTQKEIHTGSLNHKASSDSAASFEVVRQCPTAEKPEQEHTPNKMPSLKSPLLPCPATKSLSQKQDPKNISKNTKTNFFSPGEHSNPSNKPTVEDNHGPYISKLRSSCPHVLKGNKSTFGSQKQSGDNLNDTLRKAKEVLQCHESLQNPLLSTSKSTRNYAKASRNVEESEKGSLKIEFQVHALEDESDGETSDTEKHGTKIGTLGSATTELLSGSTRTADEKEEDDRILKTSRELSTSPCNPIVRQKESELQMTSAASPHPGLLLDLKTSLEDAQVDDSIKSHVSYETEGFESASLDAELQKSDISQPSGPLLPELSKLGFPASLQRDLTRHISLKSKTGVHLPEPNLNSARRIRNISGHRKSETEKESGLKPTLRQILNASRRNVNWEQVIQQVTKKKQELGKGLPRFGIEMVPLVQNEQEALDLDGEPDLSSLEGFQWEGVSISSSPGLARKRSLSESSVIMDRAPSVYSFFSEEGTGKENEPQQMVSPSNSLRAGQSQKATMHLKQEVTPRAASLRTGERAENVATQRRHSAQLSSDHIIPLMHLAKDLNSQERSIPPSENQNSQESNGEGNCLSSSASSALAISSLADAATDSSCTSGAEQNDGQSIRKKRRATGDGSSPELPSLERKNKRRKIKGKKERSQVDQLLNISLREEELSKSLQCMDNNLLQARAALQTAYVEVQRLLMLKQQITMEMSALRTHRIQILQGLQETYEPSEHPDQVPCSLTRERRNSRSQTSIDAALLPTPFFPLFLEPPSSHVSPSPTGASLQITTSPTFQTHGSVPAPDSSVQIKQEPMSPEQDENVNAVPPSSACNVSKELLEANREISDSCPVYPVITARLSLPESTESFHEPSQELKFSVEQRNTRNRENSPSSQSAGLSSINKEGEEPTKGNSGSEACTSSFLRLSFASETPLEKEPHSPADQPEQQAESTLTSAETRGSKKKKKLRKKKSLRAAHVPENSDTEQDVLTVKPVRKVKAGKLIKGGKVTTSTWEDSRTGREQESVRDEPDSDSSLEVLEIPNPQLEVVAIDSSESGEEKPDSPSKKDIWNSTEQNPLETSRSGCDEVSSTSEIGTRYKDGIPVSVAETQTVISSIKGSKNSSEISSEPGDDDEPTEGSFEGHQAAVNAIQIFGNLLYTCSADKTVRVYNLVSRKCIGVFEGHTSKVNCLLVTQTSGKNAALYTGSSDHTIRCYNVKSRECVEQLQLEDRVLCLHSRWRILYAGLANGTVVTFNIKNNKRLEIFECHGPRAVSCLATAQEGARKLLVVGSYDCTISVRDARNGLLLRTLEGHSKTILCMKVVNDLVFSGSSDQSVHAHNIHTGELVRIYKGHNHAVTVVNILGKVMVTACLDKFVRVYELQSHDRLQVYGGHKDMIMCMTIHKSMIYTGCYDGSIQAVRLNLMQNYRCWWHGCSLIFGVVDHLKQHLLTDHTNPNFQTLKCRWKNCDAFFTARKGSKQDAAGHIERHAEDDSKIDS
UniProt O96006: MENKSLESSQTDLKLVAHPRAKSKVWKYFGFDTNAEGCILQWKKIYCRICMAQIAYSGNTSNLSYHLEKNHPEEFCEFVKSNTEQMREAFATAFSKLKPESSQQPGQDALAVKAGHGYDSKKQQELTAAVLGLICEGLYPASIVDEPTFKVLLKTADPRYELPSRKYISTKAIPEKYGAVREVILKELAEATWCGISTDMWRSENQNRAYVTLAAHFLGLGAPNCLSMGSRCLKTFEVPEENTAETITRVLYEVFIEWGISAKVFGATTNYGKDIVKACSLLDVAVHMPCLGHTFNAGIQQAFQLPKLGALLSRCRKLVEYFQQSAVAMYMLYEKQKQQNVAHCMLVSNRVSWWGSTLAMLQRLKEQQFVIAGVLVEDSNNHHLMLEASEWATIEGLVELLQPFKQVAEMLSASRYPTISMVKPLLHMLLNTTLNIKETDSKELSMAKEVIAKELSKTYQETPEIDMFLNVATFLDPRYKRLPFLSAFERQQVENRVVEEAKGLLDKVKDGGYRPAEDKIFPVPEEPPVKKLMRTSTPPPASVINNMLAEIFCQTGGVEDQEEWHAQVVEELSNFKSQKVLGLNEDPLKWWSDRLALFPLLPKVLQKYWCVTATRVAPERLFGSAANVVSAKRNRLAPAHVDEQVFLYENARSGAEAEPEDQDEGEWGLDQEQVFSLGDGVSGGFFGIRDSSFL

Compound: CC(C)N(C[C@H]1O[C@@H](n2cnc3c(N)ncnc32)[C@H](O)[C@@H]1O)[C@H]1C[C@@H](CCc2nc3cc(C(C)(C)C)ccc3[nH]2)C1 [pinometostat]
Assay: log2 fold change, soluble protein after heating vs DMSO (PISA); higher = thermal stabilisation; K562 cells, 10 uM, 30 min; active = over 0.2 and 3.5 SD of the protein, either way, in both replicates (recomputed)
In short: (§1)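 Values are thermal stability changes relative to control samples and are taken from duplicates. They are stated as log2 fold changes. Before quantification by TMTpro 16plex LC-MS/MS with equalised channel sums, K562 cells at 2×10^6 cells/mL were treated with 10 μM compound for 30 min, heated in aliquots for 3 min across 48°C-58°C, pooled, extracted in PBS with 0.5% NP-40 at 4°C, and centrifuged at 21,000xg for 90 min to give the soluble supernatant.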

| Target | log2 fold change |
| --- | --- |
| ZFHX4 isoform 5 (UniProt Q86UP3) | inactive: -0.152 |
| ZNF22 (UniProt P17026) | inactive: 0.305 |
| XYLT2 (UniProt Q9H1B5) | inactive: 0.092 |
| ZC3H7B (UniProt Q9UGR2) | inactive: 0.268 |

Compound: CC1=C(C(CC(=O)N1)C2=CC=C(C=C2)C(F)(F)F)C(=O)NC3=C(C=C4C(=C3)C=NN4)F
Assay: as above
In short: as §1

| Target | log2 fold change |
| --- | --- |
| ZBTB10 (UniProt Q96DT7) | inactive: 0.081 |
| ZDHHC16 (UniProt Q969W1) | inactive: 0.004 |
| YIPF1 (UniProt Q9Y548) | inactive: -0.002 |
| ZFHX4 isoform 5 (UniProt Q86UP3) | inactive: -0.096 |
| ZFPM1 (UniProt Q8IX07) | inactive: -0.17 |
| ZFAND3 (UniProt Q9H8U3) | inactive: 0 |
| ZNF106 (UniProt Q9H2Y7) | inactive: -0.054 |
| ZNF207 isoform 2 (UniProt O43670) | inactive: 0.129 |
| XP32 (UniProt Q5T750) | inactive: -0.749 |
| ZFC3H1 (UniProt O60293) | inactive: 0.061 |
| XIRP2 isoform 8 (UniProt A4UGR9) | inactive: 0.011 |
| YIPF2 (UniProt Q9BWQ6) | inactive: 0.111 |
| ZC3H11A (UniProt O75152) | inactive: -0.042 |
| ZBED1 (UniProt O96006) | inactive: -0.301 |
| XPA (UniProt P23025) | inactive: -0.037 |
| XRCC2 (UniProt O43543) | inactive: 0.031 |

Compound: CC1=C(C2=C(C=C1)C(=O)C3=CC=CC=C3N2CCCN)C
Assay: as above
In short: as §1

| Target | log2 fold change |
| --- | --- |
| ZKSCAN4 (UniProt Q969J2) | inactive: -0.076 |
| ZFPM2 (UniProt Q8WW38) | inactive: 0.128 |
| ZBTB10 (UniProt Q96DT7) | inactive: 0.02 |
| ZBTB17 isoform 2 (UniProt Q13105) | active: 1.05 |
| YIPF1 (UniProt Q9Y548) | inactive: -0.044 |
| ZFHX4 isoform 5 (UniProt Q86UP3) | inactive: 0.044 |
| ZFYVE21 isoform 2 (UniProt Q9BQ24) | inactive: -0.023 |
| ZNF22 (UniProt P17026) | inactive: -0.057 |
| ZKSCAN8 (UniProt Q15776) | inactive: -0.218 |
| ZFPM1 (UniProt Q8IX07) | inactive: 0.051 |
| ZFAND3 (UniProt Q9H8U3) | inactive: -0.146 |
| ZBTB24 (UniProt O43167) | inactive: -0.197 |
| ZBTB7B isoform 2 (UniProt O15156) | inactive: -0.045 |
| ZNF207 isoform 2 (UniProt O43670) | inactive: 0.02 |
| ZFX isoform 3 (UniProt P17010) | inactive: -0.06 |
| ZBTB14 (UniProt O43829) | inactive: 0.411 |
| XIRP2 isoform 8 (UniProt A4UGR9) | inactive: 0.216 |
| YIPF2 (UniProt Q9BWQ6) | inactive: 0.168 |
| ZBED1 (UniProt O96006) | inactive: -0.066 |
| XPA (UniProt P23025) | inactive: 0.019 |
| ZC3H7B (UniProt Q9UGR2) | inactive: -0.525 |
